Results: paper PMC10359273
No constants are given. Whether binding was seen depends on the method and setting. Binding seen in cells or lysates may run through a third protein. Some entries that bind do so weakly or less than the wild type.

Chains of the proteins cited; added tags and fusions are not shown. Lines headed by an entry give the natural chain unless they say otherwise; changes in a name come on top.
UniProt P08069: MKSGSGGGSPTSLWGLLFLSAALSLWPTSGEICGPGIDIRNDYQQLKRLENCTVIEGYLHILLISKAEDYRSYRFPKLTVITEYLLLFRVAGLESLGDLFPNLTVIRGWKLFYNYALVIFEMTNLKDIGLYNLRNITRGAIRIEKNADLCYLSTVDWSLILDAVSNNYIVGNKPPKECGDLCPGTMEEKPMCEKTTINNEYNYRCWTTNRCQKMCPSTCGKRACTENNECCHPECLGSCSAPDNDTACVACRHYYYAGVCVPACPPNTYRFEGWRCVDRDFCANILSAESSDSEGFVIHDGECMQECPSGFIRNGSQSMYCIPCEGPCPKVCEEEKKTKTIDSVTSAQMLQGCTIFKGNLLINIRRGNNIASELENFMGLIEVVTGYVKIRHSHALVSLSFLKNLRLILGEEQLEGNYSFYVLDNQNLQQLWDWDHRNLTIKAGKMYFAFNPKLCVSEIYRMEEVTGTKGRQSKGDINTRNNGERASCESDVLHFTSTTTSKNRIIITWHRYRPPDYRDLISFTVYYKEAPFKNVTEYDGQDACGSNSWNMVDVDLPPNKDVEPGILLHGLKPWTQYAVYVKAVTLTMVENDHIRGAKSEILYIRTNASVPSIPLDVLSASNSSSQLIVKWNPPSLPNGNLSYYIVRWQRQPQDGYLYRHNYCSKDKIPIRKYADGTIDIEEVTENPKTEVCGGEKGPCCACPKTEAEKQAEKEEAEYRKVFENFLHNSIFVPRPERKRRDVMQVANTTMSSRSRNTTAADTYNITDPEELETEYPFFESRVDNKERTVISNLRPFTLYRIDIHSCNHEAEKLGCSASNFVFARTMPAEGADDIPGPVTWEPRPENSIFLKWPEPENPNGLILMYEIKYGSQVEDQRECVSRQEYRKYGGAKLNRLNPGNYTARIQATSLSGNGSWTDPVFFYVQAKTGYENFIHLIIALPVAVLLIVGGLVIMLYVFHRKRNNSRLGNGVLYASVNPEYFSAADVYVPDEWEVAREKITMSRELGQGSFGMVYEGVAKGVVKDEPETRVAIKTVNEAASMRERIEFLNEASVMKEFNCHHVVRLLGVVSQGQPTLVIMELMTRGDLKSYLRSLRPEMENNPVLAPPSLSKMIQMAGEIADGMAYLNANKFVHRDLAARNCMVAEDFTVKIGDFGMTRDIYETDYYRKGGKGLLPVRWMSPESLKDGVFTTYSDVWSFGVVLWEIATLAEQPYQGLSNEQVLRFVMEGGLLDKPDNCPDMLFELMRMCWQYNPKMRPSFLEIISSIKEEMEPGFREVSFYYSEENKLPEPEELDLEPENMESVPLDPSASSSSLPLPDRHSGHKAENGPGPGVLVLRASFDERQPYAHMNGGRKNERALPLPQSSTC

T1: EPS15 Homology Domain containing 1 (EHD1) protein (human (endogenous in TC71 and A673)) (UniProt Q9H4M9)
T1 sequence: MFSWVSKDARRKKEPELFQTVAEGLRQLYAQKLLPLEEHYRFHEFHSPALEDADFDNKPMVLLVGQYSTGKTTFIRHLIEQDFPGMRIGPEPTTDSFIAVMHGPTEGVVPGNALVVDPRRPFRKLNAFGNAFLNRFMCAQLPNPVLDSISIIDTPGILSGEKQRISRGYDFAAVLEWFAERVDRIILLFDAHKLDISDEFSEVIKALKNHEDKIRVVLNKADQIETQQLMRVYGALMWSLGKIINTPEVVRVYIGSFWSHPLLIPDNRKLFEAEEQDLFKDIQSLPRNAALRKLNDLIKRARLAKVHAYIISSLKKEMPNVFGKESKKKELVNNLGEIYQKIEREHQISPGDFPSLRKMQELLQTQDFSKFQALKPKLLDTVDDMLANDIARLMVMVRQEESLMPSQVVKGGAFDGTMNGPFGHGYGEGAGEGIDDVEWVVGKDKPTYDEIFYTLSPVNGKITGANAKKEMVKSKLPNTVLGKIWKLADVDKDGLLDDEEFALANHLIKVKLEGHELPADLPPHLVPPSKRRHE


Key:
[1] = target: T1, EPS15 Homology Domain containing 1 (EHD1) protein (human (endogenous in TC71 and A673)); assay: co-IP; anti-IGF-1Rβ or anti-EHD1 immunoprecipitates from 1 mg lysate protein of TC71 and A673 cells (Triton-X-100 lysis buffer, protein A-Sepharose, overnight 4 °C, six washes), blotted for IGF-1Rβ or EHD1; cells serum/IGF-1-deprived for 24 h, then unstimulated or stimulated with IGF-1 (50 ng/ml) for 1 h
[2] = target: insulin-like growth factor 1 receptor (IGF-1R) (human (endogenous in TC71 and A673)) (UniProt P08069); assay: as above

binding [1]	binding [2]	Molecule
binds	–	insulin-like growth factor 1 receptor (IGF-1R) (from UniProt P08069 31-736; P08069 741-1367)
–	binds	EPS15 Homology Domain containing 1 (EHD1) protein (protein, UniProt Q9H4M9 1-534) MFSWVSKDARRKKEPELFQTVAEGLRQLYAQKLLPLEEHYRFHEFHSPALEDADFDNKPMVLLVGQYSTGKTTFIRHLIEQDFPGMRIGPEPTTDSFIAVMHGPTEGVVPGNALVVDPRRPFRKLNAFGNAFLNRFMCAQLPNPVLDSISIIDTPGILSGEKQRISRGYDFAAVLEWFAERVDRIILLFDAHKLDISDEFSEVIKALKNHEDKIRVVLNKADQIETQQLMRVYGALMWSLGKIINTPEVVRVYIGSFWSHPLLIPDNRKLFEAEEQDLFKDIQSLPRNAALRKLNDLIKRARLAKVHAYIISSLKKEMPNVFGKESKKKELVNNLGEIYQKIEREHQISPGDFPSLRKMQELLQTQDFSKFQALKPKLLDTVDDMLANDIARLMVMVRQEESLMPSQVVKGGAFDGTMNGPFGHGYGEGAGEGIDDVEWVVGKDKPTYDEIFYTLSPVNGKITGANAKKEMVKSKLPNTVLGKIWKLADVDKDGLLDDEEFALANHLIKVKLEGHELPADLPPHLVPPSKRRHE
